Paper PMC9368491
These are yes or no findings as the source states them, for the method shown. Binding seen in cells or lysates may run through a third protein. Some entries that bind do so weakly or less than the wild type.

Protein sequences, listed by entry. Tags and fused reporters are not part of them. Lines headed by an entry give the natural chain unless they say otherwise; changes in a name come on top.
UniProt Q03135: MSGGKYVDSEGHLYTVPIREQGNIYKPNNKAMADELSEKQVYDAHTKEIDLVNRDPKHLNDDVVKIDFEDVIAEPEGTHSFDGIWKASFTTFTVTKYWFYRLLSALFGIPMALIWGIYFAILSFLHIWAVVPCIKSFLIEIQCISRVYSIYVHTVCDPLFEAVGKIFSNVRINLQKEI
UniProt P35222: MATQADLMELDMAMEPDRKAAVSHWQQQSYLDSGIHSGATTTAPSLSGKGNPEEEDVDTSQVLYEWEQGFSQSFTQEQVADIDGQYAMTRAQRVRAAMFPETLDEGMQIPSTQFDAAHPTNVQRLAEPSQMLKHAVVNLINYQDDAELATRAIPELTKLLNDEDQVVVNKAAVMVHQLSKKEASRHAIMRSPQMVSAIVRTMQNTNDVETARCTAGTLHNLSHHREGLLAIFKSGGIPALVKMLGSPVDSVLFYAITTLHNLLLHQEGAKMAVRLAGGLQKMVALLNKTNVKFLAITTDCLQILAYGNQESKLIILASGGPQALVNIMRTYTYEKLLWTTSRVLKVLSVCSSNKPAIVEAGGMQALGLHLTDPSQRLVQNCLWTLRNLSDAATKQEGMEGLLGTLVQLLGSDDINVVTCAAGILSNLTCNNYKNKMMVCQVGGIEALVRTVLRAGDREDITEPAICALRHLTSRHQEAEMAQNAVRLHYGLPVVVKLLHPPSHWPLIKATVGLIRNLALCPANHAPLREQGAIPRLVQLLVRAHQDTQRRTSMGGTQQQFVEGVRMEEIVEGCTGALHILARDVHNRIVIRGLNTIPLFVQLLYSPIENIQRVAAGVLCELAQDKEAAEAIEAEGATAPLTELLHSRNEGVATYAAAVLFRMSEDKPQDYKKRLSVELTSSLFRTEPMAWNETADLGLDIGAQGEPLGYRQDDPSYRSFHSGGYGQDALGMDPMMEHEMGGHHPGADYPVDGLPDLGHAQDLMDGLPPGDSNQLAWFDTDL

How the values were obtained:
Experiment in all cases: co-IP; MCF-7 cells transfected with Cav-1 WT, Y14F or Y14D, treated with DMSO or 50 μM NS1643 for 1 h; lysed and precipitated with anti-Cav-1 antibody; eluted proteins blotted for β-catenin
[1] = target: Cav-1 phosphomimicking Y14D mutant (human) (UniProt Q03135)
[2] = target: Cav-1 phosphodefective Y14F mutant (human) (UniProt Q03135)
[3] = target: Cav-1 wild type (WT) (human) (UniProt Q03135)

Substance: β-catenin (from UniProt P35222 1-781)
- binding [1]: binds
- binding [2]: binds weakly
- binding [3]: binds
